PubChem BioAssay AID504774 – Drosophila RNAi Screening Center | 2011

- Test: 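Genes required for cells to withstand methyl methanesulphonate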 (primary screen)
- Cells: Drosophila Kc167 cells
- Knock-down reagent: long dsRNA against Drosophila genes, about 0.25 µg dsRNA per well
- Timing: about 6 days: 3 days knock-down, then 3 days with or without MMS
- Conditions: methyl methanesulphonate 0.004% (w/v) for 3 days after knock-down
- Measurement: 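ATP-dependent luminescence as a measure of live cells in MMS-exposed wells, quantile normalised within each plate, with replicate values also given as a mean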
- Direction: mean viability with MMS and viability with MMS: higher = more surviving cells after MMS
In all, the deposit lists about 23,000 reagents; shown is an unselected part of those with a known target gene and a result. 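Values are quantile-normalised luminescence on an arbitrary scale; higher means more cells surviving MMS.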 Further read-outs or replicates are left out here.

no.	target gene	DRSC id	mean viability with MMS	viability with MMS, replicate 1
1	ND-30 (NADH dehydrogenase (ubiquinone) 30 kDa subunit)	DRSC08243	3.44e6	3.83e6
2	TotC (Turandot C)	DRSC13449	3.64e6	4.08e6
3	CG18754	DRSC15387	3.48e6	4.10e6
4	Alp2 (Alkaline phosphatase 2)	DRSC04354	3.33e6	3.78e6
5	Adck5 (aarF domain containing kinase 5)	DRSC10890	3.64e6	4.08e6
6	Dek	DRSC07418	3.38e6	3.79e6
7	Rrp45	DRSC20198	3.41e6	3.86e6
8	GatA (Glutamyl-tRNA amidotransferase, subunit A)	DRSC16956	3.68e6	4.15e6
9	MBD-like (Methyl-CpG binding domain protein-like)	DRSC16996	3.56e6	4.03e6
10	Phm (Peptidylglycine-alpha-hydroxylating monooxygenase)	DRSC04639	3.63e6	4.20e6
11	gl (glass)	DRSC16957	3.56e6	4.01e6
12	CG9308	DRSC04539	3.50e6	3.96e6
13	CG33234	DRSC07994	3.50e6	3.93e6
14	AOX2 (Aldehyde oxidase 2)	DRSC15338	3.75e6	4.31e6
15	Jon66Ci (Jonah 66Ci)	DRSC10772	3.69e6	4.14e6
16	CG13679	DRSC10037	3.41e6	3.97e6
17	CG13679	DRSC22749	3.66e6	4.16e6
18	Vps4 (Vacuolar protein sorting 4)	DRSC19338	3.39e6	3.78e6
19	CG8132	DRSC16383	3.77e6	4.13e6
20	CG32686	DRSC17645	3.43e6	3.92e6
21	Inx7 (Innexin 7)	DRSC18784	3.67e6	4.21e6
22	CBP (sarcoplasmic calcium-binding protein)	DRSC17746	3.26e6	3.87e6
23	Ir56d (Ionotropic receptor 56d)	DRSC06590	3.51e6	3.91e6
24	CG12517	DRSC02173	3.52e6	3.90e6
25	Slmap (Sarcolemma associated protein)	DRSC03799	3.54e6	4.05e6
26	Nbr (Nibbler)	DRSC03166	3.53e6	3.90e6
27	wap (wings apart)	DRSC20626	3.50e6	4.00e6
28	wake (wide awake)	DRSC16148	3.76e6	4.37e6
29	wake (wide awake)	DRSC16149	3.71e6	4.28e6
30	CG34243 (retired record)	DRSC09291	3.50e6	3.95e6
31	CG34243 (retired record)	DRSC09292	3.67e6	4.10e6
32	CG3906	DRSC04431	3.75e6	4.28e6
33	CG17327	DRSC15225	3.51e6	4.01e6
34	CG14238	DRSC14732	3.41e6	3.93e6
35	lbl (ladybird late)	DRSC16986	3.73e6	4.16e6
36	CG4293	DRSC18557	3.42e6	3.93e6
37	Obp56g (Odorant-binding protein 56g)	DRSC06432	3.48e6	3.99e6
38	IKKbeta (I-kappaB kinase beta)	DRSC16714	3.75e6	4.31e6
39	Golgin104 (Golgin 104)	DRSC10459	3.32e6	3.76e6
40	CG4199	DRSC18519	3.54e6	3.98e6
41	CG4199	DRSC21314	3.39e6	3.89e6
42	CG13369	DRSC18481	3.51e6	4.00e6
43	Xe7	DRSC12307	3.85e6	4.37e6
44	Sin3A	DRSC07552	3.17e6	3.64e6
45	CG10205	DRSC05979	3.35e6	3.65e6
46	CG11693	DRSC14353	3.36e6	3.83e6
47	CG31233	DRSC15888	3.68e6	4.19e6
48	mRpL27 (mitochondrial ribosomal protein L27)	DRSC22568	3.67e6	4.08e6
49	vers (versatile)	DRSC10715	3.43e6	3.87e6
50	vers (versatile)	DRSC23232	3.25e6	3.62e6
51	Mtch	DRSC08679	3.50e6	3.97e6
52	ND-B22 (NADH dehydrogenase (ubiquinone) B22 subunit)	DRSC03193	3.75e6	4.17e6
53	hrm (hermes)	DRSC04853	3.71e6	4.22e6
54	Rab6	DRSC03404	3.65e6	4.25e6
55	TpnC25D (Troponin C at 25D)	DRSC02965	3.47e6	3.93e6
56	oys (oysgedart)	DRSC05203	3.39e6	3.68e6
57	oys (oysgedart)	DRSC06751	3.66e6	4.20e6
58	Rtel1 (Regulator of telomere elongation helicase 1)	DRSC18343	3.53e6	4.20e6
59	CG31104	DRSC14658	3.55e6	4.02e6
60	beta4GalNAcTB (beta1,4-N-acetylgalactosaminyltransferase B)	DRSC14869	3.67e6	4.29e6
61	Corin	DRSC06818	3.53e6	3.77e6
62	wal (walrus)	DRSC07717	3.71e6	4.25e6
63	Nep7 (Neprilysin 7)	DRSC15830	3.51e6	4.05e6
64	FeCH (Ferrochelatase)	DRSC16948	3.62e6	4.24e6
65	Gdap1	DRSC10437	3.48e6	3.94e6
66	Dlip3 (Dorsal interacting protein 3)	DRSC07401	3.85e6	4.26e6
67	C1GalTA (Core 1 Galactosyltransferase A)	DRSC03246	3.57e6	4.28e6
68	CheA75a (Chemosensory protein A 75a)	DRSC10807	3.62e6	4.07e6
69	bab1 (bric a brac 1)	DRSC08379	3.67e6	3.49e6
70	bab1 (bric a brac 1)	DRSC08709	3.64e6	3.99e6
71	bab1 (bric a brac 1)	DRSC21882	3.67e6	4.10e6
72	tadr (torn and diminished rhabdomeres)	DRSC03177	3.53e6	4.02e6
73	CG33704	DRSC03838	3.46e6	4.01e6
74	cnk (connector enhancer of ksr)	DRSC07595	3.41e6	3.80e6
75	Taf11 (TBP-associated factor 11)	DRSC03448	3.50e6	4.03e6
76	CG34445	DRSC22404	3.68e6	4.06e6
77	CG11755	DRSC14374	3.51e6	3.91e6
78	UQCR-6.4 (Ubiquinol-cytochrome c reductase 6.4 kDa subunit)	DRSC06454	3.66e6	4.15e6
79	Eig71Ek	DRSC11158	3.67e6	4.19e6
80	Rpn2 (Regulatory particle non-ATPase 2)	DRSC16839	2.87e6	3.69e6
81	Tep1 (Thioester-containing protein 1)	DRSC03450	3.46e6	3.94e6
82	Snm1	DRSC12130	3.73e6	4.21e6
83	hiw (highwire)	DRSC20338	3.75e6	4.22e6
84	hiw (highwire)	DRSC20339	3.48e6	3.98e6
85	Rhp (Rhophilin)	DRSC20279	3.56e6	4.08e6
86	CG17715	DRSC11950	3.40e6	3.79e6
87	Rrp5 (Ribosomal RNA Processing 5)	DRSC15862	3.54e6	3.99e6

10 entries already listed, arranged by “mean viability with MMS”, lowest first.
target gene	DRSC id	mean viability with MMS	viability with MMS, replicate 1
Sin3A	DRSC07552	3.17e6	3.64e6
CG10205	DRSC05979	3.35e6	3.65e6
CG11693	DRSC14353	3.36e6	3.83e6
CG4199	DRSC21314	3.39e6	3.89e6
vers (versatile)	DRSC10715	3.43e6	3.87e6
CG13369	DRSC18481	3.51e6	4.00e6
CG4199	DRSC18519	3.54e6	3.98e6
mRpL27 (mitochondrial ribosomal protein L27)	DRSC22568	3.67e6	4.08e6
CG31233	DRSC15888	3.68e6	4.19e6
Xe7	DRSC12307	3.85e6	4.37e6
